According to PMC6925144, “A prospective compound screening contest identified broader inhibitors for Sirtuin 1” (Scientific Reports, 2019):
Whole data set: some 3,200 compounds, median “TSA(without NAD+) / Primary screening (TSA) / delta Tm (K)” near -0.07, cut for the highest 2% near 0.37. The list shows a part of the results.

Amino acid sequences for entries named in this document (tags omitted). Residues count along the entry.
UniProt Q96EB6, 2-747 limits assumed: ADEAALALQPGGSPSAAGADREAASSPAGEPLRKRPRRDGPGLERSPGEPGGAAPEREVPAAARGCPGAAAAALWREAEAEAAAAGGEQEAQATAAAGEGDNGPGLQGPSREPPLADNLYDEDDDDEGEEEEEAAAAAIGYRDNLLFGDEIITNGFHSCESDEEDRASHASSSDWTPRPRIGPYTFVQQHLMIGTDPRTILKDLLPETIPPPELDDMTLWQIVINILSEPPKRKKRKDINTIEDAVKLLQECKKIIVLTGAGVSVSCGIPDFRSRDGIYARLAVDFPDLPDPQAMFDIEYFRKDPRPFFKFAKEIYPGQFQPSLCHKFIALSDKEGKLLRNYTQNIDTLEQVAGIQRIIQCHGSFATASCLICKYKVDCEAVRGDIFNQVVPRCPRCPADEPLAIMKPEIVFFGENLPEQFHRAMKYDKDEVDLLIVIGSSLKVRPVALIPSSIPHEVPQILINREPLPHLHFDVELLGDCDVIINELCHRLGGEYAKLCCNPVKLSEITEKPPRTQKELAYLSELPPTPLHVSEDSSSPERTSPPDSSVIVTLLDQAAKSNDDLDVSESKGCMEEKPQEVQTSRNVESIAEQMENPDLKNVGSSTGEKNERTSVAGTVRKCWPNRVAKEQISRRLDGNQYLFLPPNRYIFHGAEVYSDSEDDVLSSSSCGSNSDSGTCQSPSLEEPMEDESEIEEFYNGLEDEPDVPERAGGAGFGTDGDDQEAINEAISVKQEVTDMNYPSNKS

target: NAD-dependent deacetylase Sirtuin 1 (human, UniProt Q96EB6); experiment: primary screen, delta tm; parameters: single well (n = 1); settings: 10 µM
Outline: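 Thermal shift of Sirtuin 1 measured without NAD+, compound at 10 µM (n = 1); value is ΔTm, with hits defined as ΔTm > 0.45 K or < −1.5 K. Hits retested at 5, 10, 20 µM (n = 4) and counterscreened on bovine carbonic anhydrase and ABL1 SH2 domain.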

SMILES | TSA(without NAD+) / Primary screening (TSA) / delta Tm (K)
CNC(=O)c1ccc(CSc2nccn2Cc2ccccn2)cc1 | -0.04 K
CCn1c(SCc2cccc(F)c2)nc2ccsc2c1=O | -0.23 K
Cc1cc(N2CCN(CC(=O)Nc3ccccc3C(N)=O)CC2)nc(C(C)C)n1 | -0.11 K
CCCCn1c(N)c(N(CC(C)C)C(=O)c2cccc(S(=O)(=O)N(C)c3ccccc3)c2)c(=O)[nH]c1=O | -0.08 K
CC1(c2cccc(NC(=O)c3ccc4ccccc4n3)c2)NC(=O)NC1=O (stereo not shown) | -0.38 K
O=C(Nc1ccc2c(c1)C(=O)NC2=O)Nc1cnc[nH]1 | -0.17 K
NC(=O)CCN(Cc1ccccc1)C(=O)COC(=O)C12CC3CC(C1)CC(c1ccccc1)(C3)C2 | -0.24 K
CCCOCC(=O)O | -0.13 K
Cc1cc(Br)c(NCc2cc(=O)n3ccccc3n2)c(Br)c1 | 0.08 K
O=C(NC12CC3CC(CC(C3)C1)C2)c1c[nH]n2c1nc(=O)c1ccccc12 | -0.03 K
Cc1oc2cc(OC(C)C(=O)NCc3ccco3)ccc2c(=O)c1-c1c(F)cccc1Cl (stereo not shown) | -0.11 K
COc1cc(NC(=O)c2ccco2)c(C(=O)OCc2nc3ccsc3c(=O)[nH]2)cc1OC | -0.24 K
CC(C)Nc1nnc(S)s1 | -0.02 K
Cc1ccc(C2C(C(=O)c3nc4ccccc4s3)=C(O)C(=O)N2CCCN2CCOCC2)cc1 (stereo not shown) | -0.23 K
Cc1sc2ncnc(N3CCC(C(N)=O)CC3)c2c1C | -0.11 K
CN1C(=O)N(CC(=O)Nc2ccc(-n3cnc4ccccc43)nc2)C(=O)C12CCCCC2 | -0.13 K
Cc1cc2ccccc2n1CC(=O)NCC(Cc1ccccc1)N(C)C (stereo not shown) | -0.12 K
CCOc1ccc(CN(C)CC(=O)Nc2oc(C)c3c(C)n[nH]c(=O)c23)cc1 | -0.01 K
CCn1c(=O)c(=O)[nH]c2cc(C(=O)N(C)Cc3ccc(OCc4ccccc4)c(OC)c3)ccc21 | 0.05 K
CCCCNC(=O)C1CCN(S(=O)(=O)c2cc(C(N)=O)n(C)c2)CC1 | 0.19 K
O=C(CNC(=O)C12CC3CC(CC(C3)C1)C2)N1CCN(S(=O)(=O)c2ccc3ccccc3c2)CC1 | -0.12 K
Cn1ncc2c(=O)n(CC(=O)N3CCCc4c(C(N)=O)cccc43)cnc21 | -0.18 K
CCn1c(C(=O)Nc2ccc3nc[nH]c(=O)c3c2)cc2ccccc21 | -0.23 K

SMILES | TSA(without NAD+) / Primary screening (TSA) / delta Tm (K)
NC(=O)C1CCCCC1NCc1nc2c(s1)CCC2 (stereo not shown) | -0.12 K
COc1ccc(C(=O)NNC(=O)COc2ccccc2C)cc1S(=O)(=O)NC(C)C12CC3CC(CC(C3)C1)C2 (stereo not shown) | 0.09 K
O=C(O)c1cc(S(=O)(=O)NCC2CCCO2)ccc1Br (stereo not shown) | -0.08 K
O=C(NCc1ccc(C(=O)N2CCCCC2)cc1)c1ccccc1Nc1ccccc1 | 0.17 K
CC1CCN(Cc2nc(N3CCNC(C(N)=O)C3)c3c4c(sc3n2)CCC4)CC1 (stereo not shown) | -0.13 K
CCC1(N)CC1 | -0.11 K
Cc1ccc(NC(=O)CN2CCN(C(=O)c3ccc(-c4ccc(F)cc4)o3)CC2)cc1 | 0.02 K
NC(=O)CN(Cc1ccc(OCc2ccccc2)cc1)C(=O)c1ccncc1 | 0.27 K
O=c1ccncn1CC1Cc2ccccc2O1 (stereo not shown) | -0.18 K
COc1cccc(CN(C)CC(=O)NC(=O)NCc2ccccc2)c1 | -0.18 K
Cc1cc(=O)[nH]c(-c2cccc(NC(=O)c3cnc4ccccc4n3)c2)n1 | 0.07 K
COc1cccc(/C=C/C(=O)N2CCC(CC(N)=O)CC2)c1OC | -0.02 K
CN(c1cccnn1)C1CCN(c2ncnc3c2oc2ccccc23)CC1 | -0.15 K
Cc1nc2c(cc1C(=O)N(C)C)c(C)nn2C | -0.08 K
CN(CCO)c1ncnc2c1oc1ccccc12 | -0.27 K
C#CCC(Nc1nc(-c2cccnc2)nc2ccccc12)C(N)=O (stereo not shown) | -0.13 K
CC1(C)CCC(NC(=O)c2ccc3c(c2)C(=O)NC3=O)c2ccccc21 (stereo not shown) | -0.03 K
C#CCC(NC(=O)c1cccc(S(=O)(=O)N(C)c2ccc(C)cc2)c1)C(N)=O (stereo not shown) | 0.13 K
Cc1nc(-c2cccc(N3CC(C(=O)O)CC3=O)c2)oc1C (stereo not shown) | -0.22 K
CNCC1CCN(S(=O)(=O)c2ccc(C#N)cc2C)CC1 | 0.12 K
NCCN1CCC1 | -0.03 K
O=C(NCC1CC2c3ccccc3C1c1ccccc12)c1cnccn1 (stereo not shown) | -0.17 K
COc1cc(CN(C)C(=O)Cc2c[nH]c3ccccc23)ccc1OCc1ccccc1 | -0.07 K

Given as labelled records: 3 of the compounds above
CC1(c2cccc(NC(=O)c3ccc4ccccc4n3)c2)NC(=O)NC1=O (stereo not shown)
  TSA(without NAD+) / Primary screening (TSA) / delta Tm (K): -0.38 K
Cc1sc2ncnc(N3CCC(C(N)=O)CC3)c2c1C
  TSA(without NAD+) / Primary screening (TSA) / delta Tm (K): -0.11 K
O=c1ccncn1CC1Cc2ccccc2O1 (stereo not shown)
  TSA(without NAD+) / Primary screening (TSA) / delta Tm (K): -0.18 K

(continued)

SMILES | TSA(without NAD+) / Primary screening (TSA) / delta Tm (K)
COc1ccccc1/C=C1/Oc2cc(O)ccc2C1=O | -0.11 K
COc1ccc(CCNC(=O)CSc2nnc(C)s2)cc1OC | -0.12 K
Cc1nc(-c2ccccc2)sc1C(=O)C1=C(O)C(=O)N(CCN2CCOCC2)C1c1cccs1 (stereo not shown) | -0.05 K
COc1ccc(-c2nn(-c3ccccc3)cc2CN(CCCCCCN(Cc2cn(-c3ccccc3)nc2-c2ccc(OC)cc2)C(=O)CCC(=O)O)C(=O)CCC(=O)O)cc1 | 0.37 K
O=C(C1CCN(c2cc(=O)n3ccccc3n2)CC1)N1CCCCC1 | 0.02 K
Cc1nn(C)c2ncc(S(=O)(=O)N(C)c3ccc(F)cc3)cc12 | -0.22 K
Cc1cc(NC(=O)N2Cc3cc4c(cc3C3(CCCC3)C2)OCCO4)no1 | -0.33 K
Cc1cc(=O)[nH]c(-c2cccc(NC(=O)c3ccc4c(c3)CCC4)c2)n1 | -0.04 K
CN(Cc1cccc(F)c1)C(=O)c1cnc2ccccn2c1=O | 0.13 K
Cc1noc(COC(=O)c2cc(-c3ccc(C)o3)nc3ccccc23)n1 | -0.01 K
c1ccc(-n2ncc3c(N4CCCO4)ncnc32)cc1 | -0.31 K
O=C(CCc1c[nH]c2ccccc12)Nc1cccc(S(=O)(=O)NCc2ccco2)c1 | -0.01 K
CN(CCCNC(=O)N[C@@H]1c2ccccc2C[C@@H]1O)S(C)(=O)=O | -0.08 K
Cn1c(SCc2nc3ccccc3s2)nc2ccsc2c1=O | -0.24 K
O=C(NCC(=O)N1CC=C(c2ccccc2)CC1)NCc1ccccc1 | -0.12 K
O=c1[nH]c(CNc2ccc3c(c2)OCO3)nc2ccsc12 | -0.17 K
O=S1CCN(c2ncnc3ccsc23)CC1 | -0.11 K
O=C(O)[C@@H](O)[C@H](O)C(=O)O | -0.22 K
Cc1cc(C=C2C(=O)NC(=S)NC2=O)c(C)n1-c1ccc(F)cc1 | -0.42 K
COc1ccc(-c2cc(NC(=O)Cc3n[nH]c(=O)c4ccccc34)ccc2OC(F)F)cc1 | 0.16 K
O=C(Cc1cccc2ccccc12)NCCN/C(O)=C1\N=CC=CC1=O | -0.05 K
NC(=O)c1cnc(N2CCCC(c3nnc[nH]3)C2)c(Cl)c1 (stereo not shown) | 0.02 K
CC(NC(=O)c1ccc2c(c1)CCC(=O)N2)c1ccc2c(c1)CC(=O)N2 (stereo not shown) | -0.32 K

SMILES | TSA(without NAD+) / Primary screening (TSA) / delta Tm (K)
CC(C)n1nc(C(=O)Nc2cccc(S(=O)(=O)NCc3ccco3)c2)c2ccccc2c1=O | -0.05 K
COc1ccc(C2C(C(=O)c3ccc(F)cc3)=C(O)C(=O)N2CCCN2CCOCC2)cc1 (stereo not shown) | 0.32 K
Cc1cc2oc(=O)cc(CN3CCC(NS(C)(=O)=O)CC3)c2cc1C | -0.02 K
CCN(C(=O)CSc1nnc(NC2CCCCC2)s1)C1CCS(=O)(=O)C1 (stereo not shown) | -0.05 K
CCCCC(N)CN (stereo not shown) | -0.12 K
NC(=O)COC(=O)C1CCCN(C2=NS(=O)(=O)c3ccccc32)C1 (stereo not shown) | -0.23 K
O=C(Nc1cc(S(=O)(=O)N2CCOCC2)ccc1Oc1ccccc1)C1=COCCO1 | -0.04 K
COc1ccc(N(C)S(=O)(=O)c2cccc(C(=O)Nc3cccc(C#N)c3)c2)cc1 | 0.22 K
COC(=O)c1cn(CC(=O)N2CCc3ccc(O)cc3C2)c2ccccc12 | 0.08 K
O=C1CC(C(=O)Nc2ccc(-c3csc(N4CCOCC4)n3)cc2)c2ccc(F)cc2N1 (stereo not shown) | 0.06 K
Cc1cc(-c2csc(NC(=O)c3nn(C)c(=O)c4ccccc34)n2)c(C)n1CCc1ccccc1 | -0.11 K
O=C(COc1ccccc1C(=O)Nc1ccc(S(=O)(=O)Nc2nccs2)cc1)Nc1cccc(C(F)(F)F)c1 | 0.98 K
CC(=O)Nc1ccc(NC(=O)c2cccc(S(=O)(=O)N(C)c3ccc(C)cc3)c2)cc1 | -0.11 K
Cc1nn2cccnc2c1C(=O)NCc1ccc(-c2nnn[nH]2)cc1 | 0.08 K
CCC(=O)CN | -0.22 K
COc1ccc(NS(=O)(=O)c2cccc(C(=O)NNC(=O)C34CC5CC(CC(C5)C3)C4)c2)cc1 | -0.05 K
COc1ccc(C(=O)C2=C(O)C(=O)N(CCCN3CCOCC3)C2c2ccc(C)cc2)cc1C (stereo not shown) | -0.15 K
CC(C)CCCN | -0.13 K
NC(=O)C1CCN(C(=O)c2ccc3[nH]c4c(c3c2)CCCC4)CC1 | 0.17 K
Cc1cc(C2CCN(c3ncnc4sc5c(c34)CCC5)CC2)[nH]n1 | -0.21 K
C=CCN(C)C(=O)NC(C)c1ccc(NC(=O)c2ccncc2)cc1 (stereo not shown) | -0.18 K
Cc1cc(NCc2cccnc2N2CCC(C(N)=O)CC2)nc(C)n1 | 0.07 K
